Patent US20160272707A1
These are yes or no findings as the source states them, for the method shown. Some results given as binding are weak or reduced against the parent protein; the word gives no strength.

The chains behind the UniProt entries cited, without tags or fusion partners. Residues count along the entry.
UniProt A8MXK1, residues 29-147: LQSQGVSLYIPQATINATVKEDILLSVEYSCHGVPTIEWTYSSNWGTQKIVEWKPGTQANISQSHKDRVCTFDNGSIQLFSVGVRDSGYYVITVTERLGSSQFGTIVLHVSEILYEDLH

B1: 49-01.D06 (antibody, V domains shown)
VH: QVQLVQSGAEVKKPGTSVKVSCKASGYTFTTYTMHWVRQAPGQRLEWMGWINTGNGNTKYSQKFQDRVTITRDTSASTAYMELSSLKFEDTAVYYCAREGVTIFGDHSYYYGMDVWGQGTTVTVSS
VL: QPVLTQSSSASASLGSSVKLTCTLSSGHSSYIIAWHQQQPGKAPRYLMKLEGSGSYNKGSGLPDRFSGSSSGADRYLTISNLQSEDEADYYCETWDGNTWVFGGGTQLTVLG
B2: 49-02.C11 (antibody, V domains shown)
VH: EVQLVESGGGLVQPGGSLRLSCAASGFTFSSYAMTWVRQAPGKGLEWVSVISGGGGTTYYADSVKGRFTISRDNSKNTLYLQMSSLRAEDTAVYYCAKGYSSGWPYYFDYWGQGTLVTVSS
VL: EIVLTQSPGTLSLSPGERATLSCRASQSGVTNFLAWYQQKPGQAPRLLIYATSSRATGIPDRFSGSASGTDFTLTITRLEPEDFAVYFCQQYASSPLTFGGGTKVEIKR
B3: 50-01.A04 (antibody, V domains shown)
VH: QVQLVQSGAEVKKPGESLKISCKGSGYDFNNYWIGWVRQTPEKGLEWMGIVYPGDHPGDYHIRYGPSFQGQVTISADRSITTAYLQWRNLKASDTAMYYCARLGSSKDLDYWGQGTLVTVSS
VL: EIVLTQSPATLSLSPGERATLSCRASQSVSGHLDWYQQKPGQSPRLLIYDASNRATGIPARFSGSGSGTDFSLTISSLEPEDFAVYYCQHRSNWPWTFGQGTKVEIKR
B4: 50-01.F03 (antibody, V domains shown)
VH: EVQLVEIGGGLIQPGRSLRLSCAASGFTFSSYAMHWVRQAPGKGLEWVAVISYDGSKKYYADSVKGRFTISRDNSKNTVHLQMNSLRVEDTAVYYCALLSRPHYGLDVWGQGTTVTVSS
VL: QSVLTQPPSVSAAPGQKVTISCSGSRSNVGGNFLSWYQHVPGTPPQLLIYDNYKRPSEIPDRFSGSKSGTSATLDITGLQTGDEADYYCGTWDSSLSSWVFGGGTQLTVLG
B5: 52-01.A07 (antibody, V domains shown)
VH: EVQLVESGGGLVQPGRSLRLSCAASGFTFSSYAMHWVRQAPGKGLEWVAVISYDGSNKYYADSVKGRFTISRDNSKNTLYLQMNSLRAEDTAVYYCASKRELHSFDYWGQGTLVTVSS
VL: DVVMTQSPLSLPVTPGEPASISCRSSQSLLQSNGHNYLNWYLQKPGQSPQVLIYLASNRASGVPDRFSGSGSGTDFTLKISRVEAEDVGIYYCMQGLQIPLTFGGGTKVEIKR
B6: 49-01.F01 (antibody, V domains shown)
VH: EVQLVESGGGVVKPGESLRLLCTASGLSFNKYSINWVRQAPGGGLEWVSSIESGSGHIYYADSLEGRFTISRDNAKNSVTLEMNSLRVEDTALYYCVSGPEDKWLLQLYFESWGQGTLVTVSS
VL: EIVLTQSPATLSLSPGERATLSCRTSQSSPSDNLAWYQHKPGQAPRLLIYGGSNRATGIPARFSGSGSGTDFTLTISSLEPEDFAVYYCQQYGSSPLTFGGGTKVDIKR
B7: 49-01.F05 (antibody, V domains shown)
VH: QVQLQQWGAGLLKPSETLSLTCAVYGGSFSGYYWSWIRQPPGKGLEWIGEINHSGSTNYNPSLKSRVTISVDTSKNQFSLKLSSVTAADTAVYYCARGWRGGSFMDVWGQGTTVTVSS
VL: QSALTQPRSVSGSPGQSVTISCTGTSSDVGGYNYVSWYQQHPGKAPKLMIYDVIKRPSGVPDRFSGSRSGNTASLTISGLQAEDEADYYCCSYAGTHWVFGGGTKLTVLG
B8: 50-01.D01 (antibody, V domains shown)
VH: QVQLVESGGGVVQPGRSRRLSCAASGFAFRNYGMHWVRQAPGKGLEWVAFISQNGGKKYYADSVTGRFTVSRDNSKNTLYLQINSLTTDDTAVFYCARSGSGSWGYSDFPGPFDHWGQGSLVTVSS
VL: EIVLTQSPGTLSLSPGERATLSCRASQNIFISFLAWYQQKPGQAPRLLLYGASNRATGIPDRFSGSGSGTDFTLTISRLEPEDFAVYYCQQYGSSPLTFGGGTKVEIKR
B9: 50-01.E02 (antibody, V domains shown)
VH: QVQLVESGGGVVQPGGSLKLSCVASGFTFSAYAMNWVRLVPGKGLEWVSGISGNGYSTFYPDSVQGRFTVSRDNSKNTLFLQIDRLTGGDTAIYYCAKVQTTVITPFQNWGQGTLVTVSS
VL: EIVLTQSPGTLSLSPGERATLSCRASQNIGSNFLAWYQQKPGQAPRLLIYGASTRANGIPDRFSGSKSETDFTLTISRLEPEDFAVYYCQQYDNSPYTFGQGTKLEIKR
B10: 47-01.D05 (antibody, V domains shown)
VH: QITLKESGPTLVKPTQTLTLTCTFSGFSLSTSGVGVGWIRQPPGKALEWLALIYWDDDKRYSPSLKSRLTITKDTSKNQVVLTMTNMDPVDTATYYCAHSGSVGYALYFDYWGQGTLVTVSS
VL: QAVLTQPPSSSASPGESARLTCTLPSDINVRYYNIYWYQQKPGSPPRYLLYYQSDSHKGRGSGVPSRFSGSKDTSANTGILLISGLQSEDEADYYCMIWASNGSGVLGGGTQLTVLG
B11: 50-01.B01 (antibody, V domains shown)
VH: QVQLQESGPGLMKPSQTLSLTCTVSGDSITRGSSYWSWIRQSDGKGLEWIGHIYSGGDTDYNPALKSRVTISADASRGQFLLRLTSMTAADTAVYYCARDRGAYGMDVWGQGTTVTVSS
VL: QPVLTQSSSASASLGASVKLTCTLSSEHDRYAIAWLQQKPEKGPRYLMKVNSDGSHRKGDGIPDRFSGSSSGAERYLTISRLQSEDEADYYCQTWGIGIRVFGGGTQLTVLG

Assays:
[1] = target: human VSTM5-EGFP (SEQ ID NO:133) expressed on HEK-293 cells (human); assay: FACS titration of the human IgG1 on 293-huVSTM5 cells, 293-MT control cells as open squares; y axis MFI (anti-Human A647)
VSTM5 monomer [2] = target: VSTM5 monomer (UniProt A8MXK1); assay: SPR (ProteOn XPR36), immobilised mAb, VSTM5 monomer 25 nM
VSTM5 monomer [3] = target: VSTM5 monomer (UniProt A8MXK1); assay: SPR epitope binning, remark in the column 'Epitope Bin'
VSTM5 monomer [4] = target: VSTM5 monomer (UniProt A8MXK1); assay: SPR, VSTM5 monomer binding to the IgG; binding seen, but complex kinetics gave no KD
[5] = target: human VSTM5-EGFP (SEQ ID NO:133) expressed on HEK-293 cells (human); assay: FACS titration on 293-huVSTM5 cells (FIG. 30)

| Binder | binding [1] | other results |
| --- | --- | --- |
| B1 | binds | – |
| B2 | binds | – |
| B3 | binds | – |
| B4 | binds | binding (VSTM5 monomer [2]): binds; binding (VSTM5 monomer [3]): binds; binding (VSTM5 monomer [4]): binds |
| B5 | binds | binding [5]: binds |
| B6 | binds | – |
| B7 | binds | – |
| B8 | binds | – |
| B9 | binds | binding (VSTM5 monomer [4]): binds |
| B10 | binds | – |
| B11 | – | binding (VSTM5 monomer [2]): binds; binding (VSTM5 monomer [3]): binds |
